Publication PMC6937660
These are yes or no findings as the source states them, for the method shown. In cells and extracts the contact can be indirect. A result given as binding can be weak or reduced; the word gives no strength. For some of these results: Tags and fused reporters may be left off the sequences shown.

What was measured:
[1] = target: T1, HA-tagged Numbl (full length) (human) (UniProt Q9Y6R0); assay: co-IP; HA-tagged Numbl (or derivatives) and GFP-tagged Integrin β1 (or truncation) co-expressed in HEK293T cells; extracts immunoprecipitated with anti-HA or anti-GFP and immunoblotted with anti-GFP or anti-HA
T1 sequence: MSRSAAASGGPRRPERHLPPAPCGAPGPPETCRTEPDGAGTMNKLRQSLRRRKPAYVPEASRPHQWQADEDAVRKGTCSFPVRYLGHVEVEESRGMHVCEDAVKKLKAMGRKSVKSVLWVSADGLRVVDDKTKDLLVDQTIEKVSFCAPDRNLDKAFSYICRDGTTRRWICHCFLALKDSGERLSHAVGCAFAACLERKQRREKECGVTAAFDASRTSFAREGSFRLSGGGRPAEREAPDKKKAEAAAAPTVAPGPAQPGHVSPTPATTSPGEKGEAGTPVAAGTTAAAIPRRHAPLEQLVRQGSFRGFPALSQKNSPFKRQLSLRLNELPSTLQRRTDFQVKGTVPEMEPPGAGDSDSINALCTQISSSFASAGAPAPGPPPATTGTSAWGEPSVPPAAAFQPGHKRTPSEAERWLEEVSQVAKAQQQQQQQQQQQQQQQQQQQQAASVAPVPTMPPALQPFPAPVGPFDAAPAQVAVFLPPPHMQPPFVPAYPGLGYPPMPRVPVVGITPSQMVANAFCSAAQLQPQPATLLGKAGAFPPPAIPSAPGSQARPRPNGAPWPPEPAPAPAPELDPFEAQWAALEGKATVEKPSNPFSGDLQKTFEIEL

[2] = target: Integrin β1 (endogenous, myeloma cells) (human (endogenous in myeloma cell lines RPMI 8226 / H929)); assay: co-IP; endogenous proteins in myeloma cell lysate (RIPA buffer); immunoprecipitation with anti-Integrin β1 antibody or mouse normal IgG on protein A or G Sepharose, 12 h at 4 °C; Western blot with anti-Numbl
[3] = target: GFP-tagged Integrin β1 (full length) (human); assay: co-IP; HA-tagged Numbl (or derivatives) and GFP-tagged Integrin β1 (or truncation) co-expressed in HEK293T cells; extracts immunoprecipitated with anti-HA or anti-GFP and immunoblotted with anti-GFP or anti-HA

**Q.** How did the binding [1] turn out when “Integrin β1 fragment (amino acid residues 455–802) (human) (domain or fragment)” was run?
**A.** binds

**Q.** How did the binding [1] turn out when “GFP-tagged Integrin β1 (full length) (human) (receptor)” was run?
**A.** binds

B1: Numbl (endogenous, myeloma cells) (protein, UniProt Q9Y6R0 1-609)
chain: MSRSAAASGGPRRPERHLPPAPCGAPGPPETCRTEPDGAGTMNKLRQSLRRRKPAYVPEASRPHQWQADEDAVRKGTCSFPVRYLGHVEVEESRGMHVCEDAVKKLKAMGRKSVKSVLWVSADGLRVVDDKTKDLLVDQTIEKVSFCAPDRNLDKAFSYICRDGTTRRWICHCFLALKDSGERLSHAVGCAFAACLERKQRREKECGVTAAFDASRTSFAREGSFRLSGGGRPAEREAPDKKKAEAAAAPTVAPGPAQPGHVSPTPATTSPGEKGEAGTPVAAGTTAAAIPRRHAPLEQLVRQGSFRGFPALSQKNSPFKRQLSLRLNELPSTLQRRTDFQVKGTVPEMEPPGAGDSDSINALCTQISSSFASAGAPAPGPPPATTGTSAWGEPSVPPAAAFQPGHKRTPSEAERWLEEVSQVAKAQQQQQQQQQQQQQQQQQQQQAASVAPVPTMPPALQPFPAPVGPFDAAPAQVAVFLPPPHMQPPFVPAYPGLGYPPMPRVPVVGITPSQMVANAFCSAAQLQPQPATLLGKAGAFPPPAIPSAPGSQARPRPNGAPWPPEPAPAPAPELDPFEAQWAALEGKATVEKPSNPFSGDLQKTFEIEL
**Q.** Which binding [2] does the source give for B1 here?
**A.** binds

B2: HA-tagged Numbl (full length) (protein, UniProt Q9Y6R0 1-609)
chain: MSRSAAASGGPRRPERHLPPAPCGAPGPPETCRTEPDGAGTMNKLRQSLRRRKPAYVPEASRPHQWQADEDAVRKGTCSFPVRYLGHVEVEESRGMHVCEDAVKKLKAMGRKSVKSVLWVSADGLRVVDDKTKDLLVDQTIEKVSFCAPDRNLDKAFSYICRDGTTRRWICHCFLALKDSGERLSHAVGCAFAACLERKQRREKECGVTAAFDASRTSFAREGSFRLSGGGRPAEREAPDKKKAEAAAAPTVAPGPAQPGHVSPTPATTSPGEKGEAGTPVAAGTTAAAIPRRHAPLEQLVRQGSFRGFPALSQKNSPFKRQLSLRLNELPSTLQRRTDFQVKGTVPEMEPPGAGDSDSINALCTQISSSFASAGAPAPGPPPATTGTSAWGEPSVPPAAAFQPGHKRTPSEAERWLEEVSQVAKAQQQQQQQQQQQQQQQQQQQQAASVAPVPTMPPALQPFPAPVGPFDAAPAQVAVFLPPPHMQPPFVPAYPGLGYPPMPRVPVVGITPSQMVANAFCSAAQLQPQPATLLGKAGAFPPPAIPSAPGSQARPRPNGAPWPPEPAPAPAPELDPFEAQWAALEGKATVEKPSNPFSGDLQKTFEIEL
**Q.** For B2, which binding [3] is on record?
**A.** binds
